Laboratory results: US20050048587A1, “Methods for identifying tolerance modulatory compounds and uses therefor” (TolerRx, Inc., priority 2003, published 2005)
For at least one compound, name, drawing or mass did not settle the structure.

Tests used:
Assay type in all cases: cell-based, human
GATA3 = GATA3 transcription factor mRNA expression, real-time PCR, in stimulated PBL; details: PBL stimulated 72 hrs with anti-CD3/anti-CD28 in presence of agent; relative to stimulated PBL without agent
Protocol: (§1) CD4+CD45RA+naïve, CD4+CD45RA−memory cells were prepared as follows. A Buffy Coat from human peripheral blood was obtained from the Oklahoma Blood Institute and processed as follows. Blood was diluted 1:2 with PBS without Ca^++Mg^++. 30 ml diluted blood was overlaid onto 15 ml Ficoll. Tubes were spun for ˜30 minutes at 2000 rpm. The Buffy cell layer was harvested into 25 ml PBS and brought to a volume of 45 ml total. Tubes were then spun ˜10 minutes at […]. Tubes were finally combined and washed with PBS. Approximately 10 percent of the cell preparation was set aside (X-VIVO 15 media+10% FCS) and is referred to hereinafter as “PBL.”
(§2) Cells (i.e., PDL, CD4+ naive, and CD4+ memory cells), were plated in six well dishes at approximately 3-4×10^6 cells/well. Prior to plating, wells were coated with αCD3/αCD28 antibodies. This was achieved by incubating the wells in the presence of antibodies for approximately 2 hrs at 37° C. Wells were subsequently washed with PBS. Cells were plated in X-VIVO 15 with 10% FCS. […]
(§3) 2.5 μl Assay on Demand reagent (Applied Biosystems) were added to 25 μl TaqMan Master MiX™ and samples brought to a total volume of 50 μl with RNAse-free water. […] Reactants were detected using an Applied Biosystems QPCR instrument (i.e., ABI Program 7000 SDS Sequence Detection System). […] The relative expression of the markers in each cell type and at each time point was also determined. […]

Tbox21 = Tbox21 (TBX21) transcription factor mRNA expression, real-time PCR, in stimulated PBL; details: PBL stimulated 72 hrs with anti-CD3/anti-CD28 in presence of agent; relative to stimulated PBL without agent
Protocol: as §1, §2, §3

FOXP3 = FOXP3 transcription factor mRNA expression, real-time PCR, in stimulated PBL; details: PBL stimulated 72 hrs with anti-CD3/anti-CD28 in presence of agent; relative to stimulated PBL without agent
Protocol: as §1, §2, §3

Th1 cells = test: [3H] thymidine proliferation assay of differentiated Th1 cells; details: anti-CD3/CD-28 coated wells, 72 hrs with drug, [3H] thymidine incorporation
Protocol: (§4) Resting, fully differentiated Th1, Th2 and Treg were seeded in wells of a 96 well plate coated with anti-CD3 and CD-28. Cells (200,000 per well) were grown in the presence or absence of a known immunomodulatory drugs including rapamycin, cyclosporine A and Cellcept (MMF) (antiproliferative agent) at the concentrations indicated for 72 hrs prior to the addition of [^3H] thymidine. The cells were then incubated with [^3H] thymidine (0.5 μCi/well) for an additional 6-18 hrs and harvested. [^3H] thymidine incorporation was determined by liquid scintillation counting.

Th2 cells = test: [3H] thymidine proliferation assay of differentiated Th2 cells; details: anti-CD3/CD-28 coated wells, 72 hrs with drug, [3H] thymidine incorporation
Protocol: as §4

Treg cells = test: [3H] thymidine proliferation assay of differentiated Treg cells; details: anti-CD3/CD-28 coated wells, 72 hrs with drug, [3H] thymidine incorporation
Protocol: as §4

Th1 cytokines = test: Cytokine production by differentiated Th1 cells, multiplexed ELISA; details: anti-CD3/CD-28 coated wells, 72 hrs with drug, supernatants
Protocol: (§5) Resting, fully differentiated Th1, Th2 and Treg were seeded in wells sof a 96 well plate coated with anti-CD3 and CD-28. Cells (200,000 per well) were grown in the presence or absence of a known immunomodulatory drugs including rapamycin, cyclosporine A and Cellcept (MMF) (antiproliferative agent) at the concentrations indicated for 72 hrs prior to the collection of supernatants for measurement of secreted cytokines. Cytokine measurement were made using a multiplexed ELISA assay (Pierce/Endogen Searchlight Assay).

Th2 cytokines = test: Cytokine production by differentiated Th2 cells, multiplexed ELISA; details: anti-CD3/CD-28 coated wells, 72 hrs with drug, supernatants
Protocol: as §5

TGFβ by Treg cells = test: TGFβ production by differentiated Treg cells, multiplexed ELISA; details: anti-CD3/CD-28 coated wells, 72 hrs with drug, supernatants
Protocol: as §5

Compound	effect on GATA3 (Th2 transcription factor) expression (GATA3)	effect on Tbox21/TBX21 (Th1 transcription factor) expression (Tbox21)	effect on FOXP3 (Treg transcription factor) expression (FOXP3)	effect on proliferation of Th1 cells (Th1 cells)	effect on proliferation of Th2 cells (Th2 cells)	effect on proliferation (expansion) of Treg cells (Treg cells)	effect on Th1 cytokine production (Th1 cytokines)	effect on Th2 cytokine production (Th2 cytokines)	effect on production of TGFβ by Treg cells (TGFβ by Treg cells)
CO[C@H]1C[C@@H]2CC[C@@H](C)[C@@](O)(O2)C(=O)C(=O)N2CCCC[C@H]2C(=O)O[C@H]([C@H](C)C[C@@H]2CC[C@@H](O)[C@H](OC)C2)CC(=O)[C@H](C)/C=C(\C)[C@@H](O)[C@@H](OC)C(=O)[C@H](C)C[C@H](C)/C=C/C=C/C=C/1C [Rapamycin, rapamycin]	suppression	suppression	suppression	did not proliferate	did not proliferate	Normal expansion	suppresses	suppresses	does not suppress
C[C@@H]1C[C@H]2[C@@H]3CCC4=CC(=O)C=C[C@]4(C)[C@@]3(F)[C@@H](O)C[C@]2(C)[C@@]1(O)C(=O)CO [Dexamethasone, dexamethasone]	did not affect	suppressed	suppressed						
